Measurements taken from article PMC2810291, “Identification and characterization of endonuclein binding proteins: evidence of modulatory effects on signal transduction and chaperone activity” (BMC Biochemistry, 2009).
Results are given in words; binding and its absence hold for the method and conditions named. Binding seen in cells or lysates may run through a third protein. A yes stands for co-enrichment or nearness to the bait. Other partners may have been found.

Chains of the proteins cited; added tags and fusions are not shown. Residues count along the entry.
UniProt O14907: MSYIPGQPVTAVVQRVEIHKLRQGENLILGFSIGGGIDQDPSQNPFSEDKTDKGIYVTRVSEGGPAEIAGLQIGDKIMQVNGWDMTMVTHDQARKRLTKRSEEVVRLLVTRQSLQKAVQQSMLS
UniProt Q9UBS4, residues 23-358: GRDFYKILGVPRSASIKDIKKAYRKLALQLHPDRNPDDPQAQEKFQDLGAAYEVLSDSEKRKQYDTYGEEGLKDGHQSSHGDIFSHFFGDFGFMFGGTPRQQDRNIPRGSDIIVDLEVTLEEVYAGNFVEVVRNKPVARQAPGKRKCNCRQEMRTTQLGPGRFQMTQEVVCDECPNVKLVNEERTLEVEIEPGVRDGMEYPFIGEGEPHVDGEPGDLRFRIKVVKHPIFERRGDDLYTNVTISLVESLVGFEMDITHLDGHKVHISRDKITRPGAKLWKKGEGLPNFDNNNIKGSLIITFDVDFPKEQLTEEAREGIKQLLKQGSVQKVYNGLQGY

Molecular target: T1, recombinant endonuclein (human, UniProt Q13610 2-501)
T1 construct: human endonuclein, coding region Asn2-Ser501 of the 2309.2 cDNA, in the vector pT7-PL; also called IEF SSP 9502; PWP1 (yeast homologue's name)
Assay: affinity purification with mass spectrometry; recombinant endonuclein coupled to cyanogen bromide-activated Sepharose 4B; placenta tissue extract applied in MB-buffer (2 mM CaCl2, 1 mM MgCl2, 140 mM NaCl, 10 mM Hepes, pH 7.4); wash with 1 M NaCl; elution with 0.1 M glycine pH 2.7; 2D-PAGE, silver staining, nano-electrospray MS/MS; reference column without endonuclein; only the target purified

| binding | Molecule |
| --- | --- |
| binds | Tax interaction protein 1 (protein spots No. 2 and No. 11) (from UniProt O14907 1-124) |
| binds | DnaJ homolog subfamily B member 11 (protein spot No. 4) (from UniProt Q9UBS4 23-358) |
| binds | mitochondrial single-stranded DNA binding protein (protein spot No. 17) (protein, UniProt Q04837 17-148) ESETTTSLVLERSLNRVHLLGRVGQDPVLRQVEGKNPVTIFSLATNEMWRSGDSEVYQLGDVSQKTTWHRISVFRPGLRDVAYQYVKKGSRIYLEGKIDYGEYMDKNNVRRQATTIIADNIIFLSDQTKEKE |
| binds | stromal cell-derived factor 2-like protein 1 (protein spot No. 8) (protein, UniProt Q9HCN8 29-221) AKTGAELVTCGSVLKLLNTHHRVRLHSHDIKYGSGSGQQSVTGVEASDDANSYWRIRGGSEGGCPRGSPVRCGQAVRLTHVLTGKNLHTHHFPSPLSNNQEVSAFGEDGEGDDLDLWTVRCSGQHWEREAAVRFQHVGTSVFLSVTGEQYGSPIRGQHEVHGMPSANTHNTWKAMEGIFIKPSVEPSAGHDEL |
